From PubChem BioAssay AID1794844 (National Center for Advancing Translational Sciences (NCATS), 2023)
The campaign covered roughly 2,800 compounds. Fewer than 10 were called active. Inconclusive results (about 7%) are left out. The call rests on the fitted dose curve; in most records, active means well fitted inhibition curve with a large enough effect; inconclusive means small, poorly fitted or top-dose-only effect; inactive means no such curve, though single readings can be large or run the other way. This is one part of the list.

Chains of the proteins cited; added tags and fusions are not shown. Lines headed by an entry give the natural chain unless they say otherwise; changes in a name come on top.
UniProt C7C422: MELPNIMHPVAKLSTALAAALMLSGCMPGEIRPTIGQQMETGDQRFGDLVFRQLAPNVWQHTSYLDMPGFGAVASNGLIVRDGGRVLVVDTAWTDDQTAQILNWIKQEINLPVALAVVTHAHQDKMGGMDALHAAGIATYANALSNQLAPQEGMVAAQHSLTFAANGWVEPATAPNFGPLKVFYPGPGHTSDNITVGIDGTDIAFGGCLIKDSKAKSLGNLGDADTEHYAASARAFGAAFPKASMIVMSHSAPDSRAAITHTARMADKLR

These molecules were tested against Metallo-beta-lactamase type 2 (Klebsiella pneumoniae) (UniProt C7C422) (assay: qHTS to identify inhibitors of the New Delhi Metallo-beta-lactamase (NDM): Nitrocefin screen against the machine-based learning selections.). Conditions: NDM-1 enzyme, nitrocefin hydrolysis, absorbance 485 nm; activity, negative = inhibition: at the top concentration.
Procedure, shortened: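 Hydrolysis by 2 nM NDM-1 was followed by absorbance after >30 min compound preincubation in HEPES pH 7.0 buffer with 1 uM Zn2SO4. For nitrocefin (16.7 uM, 15 min, 485 nm) and meropenem (50 uM, 30 min, 300 nm), each substrate ran on separate plates.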
Further: % of control where 0% means no effect.

activity, negative = inhibition, inactive:
Cc1cc(-c2ccccc2)nc(CN2CC[C@@](O)(C3CCC3)[C@H](C)C2)n1 -7.57%
O=C(Nc1ccc(-c2nnc3n2CCCC3)cc1)C1CC1 0.555%
CCC(C)NC(=O)CC1Sc2ncccc2N(C)C1=O (configuration not stated) -4.27%
COc1ccccc1C(=O)Nc1ccnn1C1CCN(C(=O)[C@@H](N)CO)CC1 0.0925%
CC(C)(C)c1ccc(C(=O)Nc2ccc(C(O)[C@H]3COCC(=O)N3)cc2)cc1 (some centres not stated) -5.31% [at 57.5 µM]
OC(c1ccccc1)c1nc(Nc2ccc(C(F)(F)F)cc2)n[nH]1 (configuration not stated) 7.39% [at 57.5 µM]
c1ccc(OCCNc2nc(-c3cccnc3)nc3c2CCNCC3)cc1 -10.6%
CCN(Cc1ccc(C)o1)C(=O)c1ccc2nc(-c3ccc(F)cc3)cn2c1 -1%
COC(=O)N1CCCCC(NC(=O)CCCc2nc(-c3ccccc3C)no2)C1 (configuration not stated) -1.3%
CCNC(=O)N[C@H]1[C@H](O)[C@@H](N(C)CCN(C)C)[C@@H]2OC[C@H]1O2 12.1% [at 57.5 µM]
O=C(O)C[C@@H]1CCN(C(=O)c2ccco2)C[C@@H]1CCN1CCOCC1 -16.5% [at 57.5 µM]
COc1ccc(CN2C(=O)CO[C@H](c3ccc(NC(=O)c4ccccc4OC)cc3)[C@H]2CO)cc1 2%
CCS(=O)(=O)c1ccc2oc([C@H]3CCN(Cc4c[nH]c5ccccc45)C3)nc2c1 -5.57% [at 57.5 µM]
NC(=O)[C@H](Cc1cccs1)NC(=O)C1=C[C@@H](NC(=O)c2ccc(F)c(Cl)c2)[C@@H](O)[C@H](O)C1 315%
COC(=O)c1[nH]nc2c1C(c1ccc(OC)c(OC)c1Cl)CC(=O)N2 (configuration not stated) -12%
N#Cc1cccc(-c2ccnc(N[C@H]3CO[C@H]4[C@@H]3OC[C@@H]4NC(=O)c3ccc(C(F)(F)F)cc3)n2)c1 -4.01%
Clc1cccnc1-c1cc(NCc2ccccn2)nc2[nH]ccc12 -5.52%
Cc1ccccc1-c1nccn2c(C3CN(Cc4ccc(O)cc4)C3)ncc12 -5% [at 57.5 µM]
COc1ccc(NC(=O)c2ccnc(-c3nnc4ccc(Nc5ccccc5)nn34)c2)cn1 -8.9% [at 57.5 µM]
O=C(O)c1cc(-c2ccc3cc[nH]c3c2)cc(S(=O)(=O)N2CCSCC2)c1 24.7%
Cc1ccc(S(=O)(=O)Nc2ccc(C)n(CC(=O)NC(C)c3ccccc3)c2=O)cc1 (configuration not stated) -14.1%
CC(C)NC(=O)N1CCOc2ccc(CCC(N)=O)cc2C1 0.491%
Clc1ccc(Cn2ccnc2-c2cc3n(n2)CCCNC3)cc1Cl -18.2%
O=C(Nc1cccc(-c2nnc3n2CCCC3)c1)c1ccc[nH]c1=O 0.765%
CC(C)C[C@@H]1N[C@H](C(=O)N(C)CCC#N)Cc2c[nH]c3cccc1c23 -7.79% [at 57.5 µM]
CC[C@H]1CN(C(=O)NC2CCCCC2)CC[C@H]1CC(=O)Nc1ccccc1 -11.1% [at 57.5 µM]
Cc1ccnn1CCC(=O)Nc1nn(C)c2cccc(N3CCOCC3)c12 22.6%
O=C(NCc1nnnn1-c1ccccc1)C1NCCc2[nH]cnc21 (configuration not stated) -14.2%
O=C(c1cccc(F)c1)N1CCCC2(C1)NC(=O)N(Cc1ccc(Cl)cc1)C2=O (configuration not stated) -0.85%
COCc1ccc(C(=O)N2CC[C@](C)(O)[C@H](C)C2)s1 -4.35%
CCS(=O)(=O)N1CCOC[C@H](Oc2ccc(C(F)(F)F)cn2)C1 -7.76% [at 57.5 µM]
CN(C)c1cccc(-c2cnc3[nH]cc(CC(=O)NCc4cccnc4)c3c2)c1 1.44% [at 57.5 µM]
c1ccc(CNc2cc3c(cn2)CN(Cc2cccnc2)CCN3)cc1 -2.53% [at 57.5 µM]
C[C@@]1(O)CCN(C(=O)CN)C[C@@H]1Cc1ccccc1 15.7%
COCCCNC(=O)C1CC(=O)N(c2n[nH]c3cccc(F)c23)C1 (configuration not stated) -7.72%
CC(=O)Nc1ccc(CN[C@@H]2CO[C@H](CNS(C)(=O)=O)[C@H]2O)cc1 -1.54% [at 57.5 µM]
Clc1cc(NC2CCOCC2)n2nccc2n1 -3.87% [at 57.5 µM]
COc1ccc(CC(=O)N2CC[C@@H](CC(=O)O)[C@@H](CCN(CCN3CCOCC3)c3ccccc3)C2)cc1 -5.13%
O=C(NCCc1ccc(Cl)cc1)c1nc(-c2ccc(F)cc2)c2ccccn12 -2.34%
O=C(N[C@H]1CCN2C(=O)c3ccccc3NC(=O)[C@@H]2C1)C1CCCC1 2.7% [at 57.5 µM]
Oc1cccc(CN2CCCC23CCN(c2ccc(C(F)(F)F)cn2)CC3)c1 0.937%
COc1ccc(-c2cccc(CCOc3cnc4c(ccn4CC(=O)O)c3)c2)c(C)c1 -9.94% [at 57.5 µM]
Cc1ccc2c(c1)nc1n2[C@@H](CNC(=O)c2cccnc2)COC1 -0.374% [at 57.5 µM]
O=C(c1csc(Cc2ccccc2)n1)N1CC[C@H](CO)[C@@H](O)C1 9.2%
CN1C[C@H](NCc2cccc(Cl)c2)CCC[C@@H](C(=O)N(C)Cc2cccnc2)CC1=O 2.8%
OC[C@@H]1CN(c2ccc(-c3nc(-c4cccc(C(F)(F)F)c4)no3)cn2)C[C@H]1CO 1.57%
COC(=O)[C@@H]1Cc2c([nH]c3ccccc23)[C@H]2C[C@@H](NCCN(C)C)C[C@@H](c3cccc(Cl)c3)N21 7.23%
COc1ccccc1-c1ccc2ncc(Nc3ccc(CCO)cc3)n2n1 -10.8% [at 57.5 µM]
Cn1cc(CNCC2(COc3cccnc3)C[C@@H](O)[C@@H](O)C2)c2ccccc21 (some centres not stated) -11.4%
O=c1c2nc(-c3cccc(O)c3)ccc2ncn1C1CC1 3.47% [at 76.7 µM]
COc1ccccc1-c1nnc([C@H]2CCN(Cc3ccccc3O)C2)o1 16% [at 57.5 µM]
O=C(NCC1CCOCC1)Nc1cc(F)c(F)c(F)c1 -0.284%
Cc1noc(C)c1[S+](=O)([O-])N1CCC2(CC1)CC(=O)c1ccccc1O2 484%
O=C(Cc1c[nH]c2ncc(-c3ccccc3)cc12)NCCN1CCOCC1 -4.78% [at 57.5 µM]
O=C(NCc1cccnc1)c1nc(-c2ccccc2)cc2[nH]ccc12 1.33% [at 57.5 µM]
C[C@H](O)c1onc(-c2ccc(Cl)cc2)c1C(=O)NC1CCC1 4.84% [at 57.5 µM]
Cc1noc([C@@H](C)NS(=O)(=O)c2ccc(Cl)cc2)c1C(=O)O 4.87% [at 57.5 µM]
CNc1ccc(-c2noc([C@@H]3CCCN3Cc3cccc(OC)c3)n2)cn1 -1.02% [at 57.5 µM]
O=C(c1ccc2[nH]ccc2c1)N1CCC2(CC1)N=C(c1ccc(Br)cc1)NO2 10.7%
Cc1ccc(C(=O)N2CC3CC(C2)[C@H]2CCCC(=O)N2C3)s1 (some centres not stated) -6.66%
Nc1nc(CCC(=O)N2CC[C@@H](NC(=O)c3cccnc3)[C@H](O)C2)cs1 2.8%
CC(=O)N1CCCN(C(=O)[C@@H]2Cc3cn(C)c4cccc(c34)[C@H](CC(C)C)N2)CC1 0.764% [at 57.5 µM]

Grouped by structure, the entries above with a cyano group (two)
activity, negative = inhibition, inactive:
N#Cc1cccc(-c2ccnc(N[C@H]3CO[C@H]4[C@@H]3OC[C@@H]4NC(=O)c3ccc(C(F)(F)F)cc3)n2)c1 -4.01%
CC(C)C[C@@H]1N[C@H](C(=O)N(C)CCC#N)Cc2c[nH]c3cccc1c23 -7.79% [at 57.5 µM]
